Data published in US20090220470A1.
No constants are given. Whether binding was seen depends on the method and setting. Some binding calls cover weakened binding; strength is not graded here. Tags and fused reporters may be left off the sequences shown.

Tests used:
[1] = molecular target: K63 tetra-ubiquitin (Boston Biochem) (UniProt P0CG48); test: SPR (BiaCore), K63 tetra ubiquitin covalently attached to CM5 chip, GST fusion injected
[2] = molecular target: K63 tetra-ubiquitin (Boston Biochem) (UniProt P0CG48); test: SPR (BiaCore), K63 tetra ubiquitin covalently attached to a CM5 chip, GST-p62 UBA fusion injected; sensorgrams normalized for analyte molecular weight
[3] = molecular target: Mono-ubiquitin (Sigma Aldrich) (UniProt P0CG48); test: SPR (BIACORE 3000), GST-p62 UBA polypeptide captured on anti-GST chip, ubiquitin injected

Measured: binding

B1: p62×1 (one only p62-UBA domain GST fusion) (protein, not shown: a dimerising Fc or GST; small tags and cut ends)
chain: PRLIESLSQMLSMGFSDEGGWLTRLLQTKNYDIGAALDTIQYSKHPGGGVEGGG
binds: [1] | [2] | [3]
